In patent publication US20070111265A1, “Ligands for mineralocorticoid receptor (MR) and methods for screening for or designing MR ligands” (Van Andel Research Institute, priority 2005, published 2007):
These are yes or no findings as the source states them, for the method shown. Some results given as binding are weak or reduced against the parent protein; the word gives no strength.

Assays:
[1] = molecular target: human MR LBD (residues 727-984) containing a C808S mutation, 6xHis-GST fusion protein (human) (UniProt P08235); assay: AlphaScreen, biotinylated peptide and 6xHis-GST MR LBD/corticosterone
[2] = molecular target: human MR LBD (residues 727-984) containing a C808S mutation, 6xHis-GST fusion protein (human) (UniProt P08235); assay: AlphaScreen peptide profiling (FIG. 1C)
[3] = molecular target: human MR LBD (residues 727-984) containing a C808S mutation, 6xHis-GST fusion protein (human) (UniProt P08235); assay: AlphaScreen competition, 500 nM unlabeled peptide against the SRC2-3 motif
[4] = molecular target: human MR LBD (residues 727-984) containing a C808S mutation, 6xHis-GST fusion protein (human) (UniProt P08235); assay: AlphaScreen peptide profiling (corticosterone- and aldosterone-bound MR LBD)
[5] = molecular target: MR LBD (C808S) with E962R first charge clamp (AF-2 helix) mutation, 6xHis-GST fusion protein (human) (UniProt P08235); assay: AlphaScreen, purified MR LBD (C808S) mutant, 100 nM corticosterone
[6] = molecular target: MR LBD (C808S) with E796R second charge clamp mutation, 6xHis-GST fusion protein (human) (UniProt P08235); assay: as above
[7] = molecular target: human MR LBD (residues 727-984) containing a C808S mutation, 6xHis-GST fusion protein (human) (UniProt P08235); assay: AlphaScreen competition (FIGS. 1C and 3D)

binding [1] | binding [2] | Binder | also measured
binds |  | AEEPSLLKKLLLAPA (biotinylated (site not stated)) [biotinylated PGC1α-1 peptide] | 
binds |  | PCQGSASHPTILYTLLSPGP (biotinylated (site not stated)) [biotinylated SHP-1 peptide] | 
binds |  | SPSSHSSLTERHKILHRLLQEGSP (biotinylated (site not stated)) [biotinylated SRC1-2 peptide] | 
 | binds | AEEPSLLKKLLLAPA [unlabeled PGC1α-1 peptide] | binding [3]: binds; binding [4]: binds
binds |  | QEPVSPKKKENALLRYLLDKDDTKD (biotinylated (site not stated)) [biotinylated SRC2-3 (TIF2) peptide] | binding [5]: binds
 | binds | WAEFSILRELLAQDV [unlabeled PGC1β-2 peptide] | binding [3]: binds; binding [4]: binds
binds |  | GHGEDFSKVSQNPILTSLLQITGN (biotinylated (site not stated)) [biotinylated TRAP peptide] | 
binds |  | VAEAPVPSILKKILLEEPNS (biotinylated (site not stated)) [biotinylated SHP-2 peptide] | 
binds |  | QKPTSGPQTPQAQQKSLLQQLLTE (biotinylated (site not stated)) [biotinylated SRC1-4 peptide] | binding [6]: binds; binding [5]: binds
 | binds | VDELSLLQKLLLATS [unlabeled PGC1β-1 peptide] | 
 |  | PRQGSILYSLLTSSK [unlabeled DAX1-3 peptide] | binding [3]: binds; binding [4]: binds
 | binds | RRPCSELLKYLTTND [unlabeled PGC1α-2 peptide] | 
 | binds | AQQKSLLQQLLTE [unlabeled SRC1-4 peptide …] | binding [7]: binds; binding [3]: binds; binding [4]: binds
binds |  | SGNLVPDAASKHKQLSELLRGGSG (biotinylated (site not stated)) [biotinylated CBP-1 peptide] | 
